No constants are given. Whether binding was seen depends on the method and setting. Some binding calls cover weakened binding; strength is not graded here.

Protein sequences, listed by entry. Tags and fused reporters are not part of them. Residues count along the entry.
UniProt P36544, residues 231-494: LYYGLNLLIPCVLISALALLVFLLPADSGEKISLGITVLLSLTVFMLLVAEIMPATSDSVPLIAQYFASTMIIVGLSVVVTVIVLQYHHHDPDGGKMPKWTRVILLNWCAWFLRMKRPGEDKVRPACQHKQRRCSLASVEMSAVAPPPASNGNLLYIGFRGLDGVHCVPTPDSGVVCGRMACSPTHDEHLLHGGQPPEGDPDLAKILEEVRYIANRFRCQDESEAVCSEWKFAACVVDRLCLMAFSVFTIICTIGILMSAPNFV
UniProt Q9NRD5, residues 22-105: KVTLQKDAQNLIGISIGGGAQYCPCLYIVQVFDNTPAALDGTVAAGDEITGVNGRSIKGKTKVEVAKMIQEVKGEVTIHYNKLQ

These results are taken from article PMC8831596, “Structures of highly flexible intracellular domain of human α7 nicotinic acetylcholine receptor” (Nature Communications, 2022).

For the assay, the target named is human α7 nicotinic acetylcholine receptor TMD + ICD construct (L209-V472) (human) (UniProt P36544). Kind of assay: SPR; steady state, Biacore 3000, NTA sensor chip, 25 °C; α7nAChR immobilised at 1000-2000 RU; PDZ domain of PICK1 flowed at 30 μl/min; apparent dissociation constants from a Langmuir isotherm; both purified. (In general: Surface plasmon resonance follows binding to a sensor surface in real time, without labels.)

Consider “PDZ domain of PICK1 (from UniProt Q9NRD5 22-105) (domain or fragment)”, for which the binding entry is reported as “binds”.
